# According to PMC10696399:
# The chains behind the UniProt entries cited, without tags or fusion partners.
# UniProt P21454: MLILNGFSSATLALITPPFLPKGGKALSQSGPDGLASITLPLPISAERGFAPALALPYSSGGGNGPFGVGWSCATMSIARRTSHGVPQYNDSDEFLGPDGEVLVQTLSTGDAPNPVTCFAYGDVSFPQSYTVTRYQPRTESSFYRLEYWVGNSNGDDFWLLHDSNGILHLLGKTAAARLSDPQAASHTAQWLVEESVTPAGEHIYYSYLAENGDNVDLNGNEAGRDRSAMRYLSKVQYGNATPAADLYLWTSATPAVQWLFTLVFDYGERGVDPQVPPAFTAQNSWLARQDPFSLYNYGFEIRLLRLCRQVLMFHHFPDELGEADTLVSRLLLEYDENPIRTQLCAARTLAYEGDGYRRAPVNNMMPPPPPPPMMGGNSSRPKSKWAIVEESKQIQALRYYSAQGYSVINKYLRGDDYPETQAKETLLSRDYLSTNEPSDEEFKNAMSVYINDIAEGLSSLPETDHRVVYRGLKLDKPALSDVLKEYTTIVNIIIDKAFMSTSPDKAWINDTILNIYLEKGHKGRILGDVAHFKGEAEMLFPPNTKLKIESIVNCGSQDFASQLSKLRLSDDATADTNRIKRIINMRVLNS
# UniProt Q00610: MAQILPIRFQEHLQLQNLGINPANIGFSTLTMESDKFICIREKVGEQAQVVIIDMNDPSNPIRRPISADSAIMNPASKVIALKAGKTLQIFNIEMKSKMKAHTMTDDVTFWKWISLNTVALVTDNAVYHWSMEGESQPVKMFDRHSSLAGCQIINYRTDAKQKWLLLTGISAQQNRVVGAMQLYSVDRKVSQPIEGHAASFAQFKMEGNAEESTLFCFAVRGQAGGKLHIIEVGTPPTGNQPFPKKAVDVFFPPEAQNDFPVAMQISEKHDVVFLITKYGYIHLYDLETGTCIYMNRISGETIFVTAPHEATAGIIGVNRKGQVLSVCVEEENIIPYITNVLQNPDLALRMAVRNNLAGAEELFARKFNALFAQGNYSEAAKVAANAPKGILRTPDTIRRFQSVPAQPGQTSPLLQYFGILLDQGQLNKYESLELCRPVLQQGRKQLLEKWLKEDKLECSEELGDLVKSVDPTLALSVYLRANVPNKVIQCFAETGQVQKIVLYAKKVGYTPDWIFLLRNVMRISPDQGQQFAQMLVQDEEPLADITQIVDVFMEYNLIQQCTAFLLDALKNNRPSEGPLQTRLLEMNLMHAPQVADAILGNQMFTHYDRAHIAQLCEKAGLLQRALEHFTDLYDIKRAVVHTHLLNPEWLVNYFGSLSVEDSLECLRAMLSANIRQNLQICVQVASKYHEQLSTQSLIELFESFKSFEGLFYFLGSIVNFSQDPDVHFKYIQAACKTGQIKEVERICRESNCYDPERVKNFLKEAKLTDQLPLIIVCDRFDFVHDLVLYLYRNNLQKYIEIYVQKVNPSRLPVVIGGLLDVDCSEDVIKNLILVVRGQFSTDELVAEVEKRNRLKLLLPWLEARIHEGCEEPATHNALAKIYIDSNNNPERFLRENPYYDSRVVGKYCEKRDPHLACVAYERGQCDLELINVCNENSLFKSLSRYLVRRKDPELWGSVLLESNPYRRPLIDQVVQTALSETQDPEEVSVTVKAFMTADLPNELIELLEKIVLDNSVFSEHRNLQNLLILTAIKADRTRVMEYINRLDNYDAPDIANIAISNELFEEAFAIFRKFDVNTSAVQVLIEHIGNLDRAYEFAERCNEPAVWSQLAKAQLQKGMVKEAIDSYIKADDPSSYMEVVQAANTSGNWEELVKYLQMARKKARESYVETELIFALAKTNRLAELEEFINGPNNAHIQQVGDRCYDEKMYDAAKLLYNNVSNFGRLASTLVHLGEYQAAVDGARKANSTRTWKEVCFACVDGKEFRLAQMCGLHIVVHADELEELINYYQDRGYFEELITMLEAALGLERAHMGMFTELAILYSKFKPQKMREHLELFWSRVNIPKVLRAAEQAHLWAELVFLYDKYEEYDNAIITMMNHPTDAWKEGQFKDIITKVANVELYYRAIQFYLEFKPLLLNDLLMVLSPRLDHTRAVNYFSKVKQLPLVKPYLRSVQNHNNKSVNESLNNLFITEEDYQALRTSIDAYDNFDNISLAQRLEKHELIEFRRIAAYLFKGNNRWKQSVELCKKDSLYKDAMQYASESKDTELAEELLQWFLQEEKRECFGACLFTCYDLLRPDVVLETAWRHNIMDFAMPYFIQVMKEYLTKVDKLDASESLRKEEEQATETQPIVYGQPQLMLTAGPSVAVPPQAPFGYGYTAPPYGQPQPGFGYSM
# No constants are given. Whether binding was seen depends on the method and setting. In cells and extracts the contact can be indirect. Some entries that bind do so weakly or less than the wild type.
# Target: FLAG-tagged SpvB (S. Typhimurium strain SL1344) (UniProt P21454)
# Test: co-IP
substance,measurement,value
clathrin heavy chain (endogenous) (from UniProt Q00610 1-1675),binding,binds
